Our source for the binding values is patent US20220064274A1 (SHANGHAI YILE BIOTECHNOLOGY, published 2022).

Test [1] has as its target T1, human proBDNF precursor protein (human, UniProt P23560 19-247).
T1 construct: also called human proBDNF precursor recombinant protein
T1 sequence (looked up): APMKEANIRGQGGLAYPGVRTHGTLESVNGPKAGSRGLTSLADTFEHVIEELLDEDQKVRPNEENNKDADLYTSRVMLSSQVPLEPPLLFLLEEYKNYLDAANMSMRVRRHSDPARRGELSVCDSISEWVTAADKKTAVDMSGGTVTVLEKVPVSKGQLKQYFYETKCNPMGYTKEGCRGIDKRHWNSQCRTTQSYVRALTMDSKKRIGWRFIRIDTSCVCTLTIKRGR
The experiment in a line: ELISA on denatured human proBDNF. (In an ELISA, binding on a coated surface is turned into a signal by an enzyme label.)

The target of test [2] is T1, human proBDNF precursor protein. As to the kind of experiment: single phage ELISA.

Results are given in words; binding and its absence hold for the method and conditions named. Some results given as binding are weak or reduced against the parent protein; the word gives no strength.

B1: 2H8 Monoclonal antibody (antibody, V domains shown)
VH: EVQLVETGGGLVQPGGSLRLSCAASGFTFSSYGMHWVRQAPGKGLEWVSVISGSGDSTYYAESVKGRFTISRDNARNTVYLQMNSLRAEDTAVYYCASGILTGYVFDYWGKGTMVTVSS
VL: DVVMTQSPLSLPVTLGQPASISCRSSQSLVSNDGNTYLNWFQQRPGQPPRRLIYMVSKWDSGVPDRFSGSGSGTDFTLRISRVEAEDVGVYYCMQSTHWPPTFGGGTKLEIKR
notes: also called recombinant monoclonal antibody 2H8
For B1, in test [1], the binding result is “binds”.

B2: single chain antibody 2H8 (scFv)
scFv: EVQLVETGGGLVQPGGSLRLSCAASGFTFSSYGMHWVRQAPGKGLEWVSVISGSGDSTYYAESVKGRFTISRDNARNTVYLQMNSLRAEDTAVYYCASGILTGYVFDYWGKGTMVTVSSGGGGSGGGGSGGGGSDVVMTQSPLSLPVTLGQPASISCRSSQSLVSNDGNTYLNWFQQRPGQPPRRLIYMVSKWDSGVPDRFSGSGSGTDFTLRISRVEAEDVGVYYCMQSTHWPPTFGGGTKLEIKR
On to B2, for which the binding result in test [2] is on record as “binds”.
